Source: PubChem BioAssay AID1053208 (Peter MacCallum Cancer Centre, 2014)
Screen: 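Find knock-downs that sensitise mouse osteosarcoma cells to doxorubicin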 (primary screen). Cell system: mouse osteosarcoma cells, early-passage culture from an engineered mouse model of fibroblastic bone tumour. Reagents: siRNA pool against mouse genes, 40 nM. Time to read-out: about 120 h (48 h before drug, then 72 h with drug). Conditions: doxorubicin 100 nM for 72 h, roughly 30-40% inhibitory dose. Measurement: 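Luminescent ATP signal taken as viability with or without 100 nM doxorubicin for 72 h; mean of two wells set against non-targeting siRNA and turned into robust z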. Direction: viability z-score with doxorubicin: higher = more viable cells under doxorubicin; viability z-score without drug: higher = more viable cells with knock-down alone. Hit rule: 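a pool counts as active when its viability z-score with doxorubicin is -2 or below and its z-score without drug lies between -2 and 2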.
Here is one part, drawn at random, of about 17,000 reagents. Over the whole deposit, 788 (4.7%) were called active. 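Calls rest on z-score classes alone; an extra cut-off of viability at most 70% of control was not applied to them.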 Unmarked entries are inactive. The numbers tell different reagents against one gene apart. Not all columns of the deposit are shown. Reagent sequences are not shown.

For Bckdha, what does the deposit list?
combined z-score class: no change with or without drug; viability z-score with doxorubicin: 1.46; viability z-score without drug: -0.51

Which result is listed for Onecut3?
combined z-score class: no change with or without drug; viability z-score with doxorubicin: -1.57; viability z-score without drug: -0.84

For Hamp, what does the deposit list?
combined z-score class: no change with or without drug; viability z-score with doxorubicin: 0.56; viability z-score without drug: -0.34

How did the screen score 2310033P09Rik?
combined z-score class: no change with or without drug; viability z-score with doxorubicin: -1.46; viability z-score without drug: -0.51

How did the screen score Cers2?
combined z-score class: no change with or without drug; viability z-score with doxorubicin: -0.22; viability z-score without drug: 1.18

For Pdcd4, how do the results read?
combined z-score class: no change with or without drug; viability z-score with doxorubicin: 0.34; viability z-score without drug: 0.34

Which result is listed for Trim30b?
combined z-score class: no change with or without drug; viability z-score with doxorubicin: -0.45; viability z-score without drug: -0.51

How did the screen score Slc1a4?
combined z-score class: no change with or without drug; viability z-score with doxorubicin: -0.22; viability z-score without drug: -0.17

What did the screen give for OSBP2?
combined z-score class: low cell count with and without drug; viability z-score with doxorubicin: -2.02; viability z-score without drug: -2.36

What is on record for Gabpb2?
combined z-score class: no change with or without drug; viability z-score with doxorubicin: 1.57; viability z-score without drug: 1.69

For Itpka, how do the results read?
combined z-score class: no change with or without drug; viability z-score with doxorubicin: 1.35; viability z-score without drug: 1.18

For Ercc8, how do the results read?
combined z-score class: no change with or without drug; viability z-score with doxorubicin: 0.9; viability z-score without drug: 0.51

What is on record for Or56b2?
combined z-score class: no change with or without drug; viability z-score with doxorubicin: 0; viability z-score without drug: -1.01

For Or51a6, what does the deposit list?
combined z-score class: low cell count with and without drug; viability z-score with doxorubicin: -3.37; viability z-score without drug: -3.2

For Thap3, how do the results read?
combined z-score class: no change with or without drug; viability z-score with doxorubicin: -1.8; viability z-score without drug: -0.67

For Grid2, what was measured?
combined z-score class: no change with or without drug; viability z-score with doxorubicin: -0.34; viability z-score without drug: -0.51

What is on record for Ppp3r2?
combined z-score class: no change with or without drug; viability z-score with doxorubicin: 1.8; viability z-score without drug: 0.17

With Mylk3, what was measured?
combined z-score class: no change with or without drug; viability z-score with doxorubicin: -1.35; viability z-score without drug: -1.52

For Tax1bp3, what was measured?
combined z-score class: no change with or without drug; viability z-score with doxorubicin: 0.11; viability z-score without drug: -0.34

For Pprc1, what does the deposit list?
combined z-score class: no change with or without drug; viability z-score with doxorubicin: -0.45; viability z-score without drug: -0.51

What did the screen give for Hdgfl3?
combined z-score class: no change with or without drug; viability z-score with doxorubicin: -0.67; viability z-score without drug: 0.34

With Angel2, what does the deposit list?
combined z-score class: no change with or without drug; viability z-score with doxorubicin: -1.57; viability z-score without drug: 0.51

With Sppl2a, how do the results read?
combined z-score class: no change with or without drug; viability z-score with doxorubicin: -1.46; viability z-score without drug: -0.34

For Pcdha12, what does the deposit list?
combined z-score class: no change with or without drug; viability z-score with doxorubicin: -0.9; viability z-score without drug: -1.52

For 4930519G04Rik, how do the results read?
combined z-score class: no change with or without drug; viability z-score with doxorubicin: -1.12; viability z-score without drug: 0.51

For Aldoart1, what does the deposit list?
combined z-score class: high cell count without drug only; viability z-score with doxorubicin: -1.01; viability z-score without drug: 2.87

What is on record for Dnajc19?
combined z-score class: no change with or without drug; viability z-score with doxorubicin: -1.8; viability z-score without drug: 0.67

What did the screen give for Ascl2?
combined z-score class: no change with or without drug; viability z-score with doxorubicin: 0; viability z-score without drug: 0.34

With Kir3dl1, what was measured?
combined z-score class: no change with or without drug; viability z-score with doxorubicin: -0.67; viability z-score without drug: -0.51

With Kcnn2, how do the results read?
combined z-score class: low cell count with doxorubicin only (active); viability z-score with doxorubicin: -2.36; viability z-score without drug: -0.84

How did the screen score Tac1?
combined z-score class: no change with or without drug; viability z-score with doxorubicin: 0.67; viability z-score without drug: 0.84

For Etfdh, what was measured?
combined z-score class: no change with or without drug; viability z-score with doxorubicin: 0.79; viability z-score without drug: 0.51

What is on record for Krtap21-1 #1?
combined z-score class: low cell count with doxorubicin only (active); viability z-score with doxorubicin: -2.14; viability z-score without drug: -0.84

For Krtap21-1 #2, how do the results read?
combined z-score class: no change with or without drug; viability z-score with doxorubicin: 0.34; viability z-score without drug: -1.85

How did the screen score Ninj1?
combined z-score class: no change with or without drug; viability z-score with doxorubicin: 0.67; viability z-score without drug: -0.67

For Rrp12, what was measured?
combined z-score class: no change with or without drug; viability z-score with doxorubicin: 0; viability z-score without drug: -0.84

Active calls, of those listed so far:
Kcnn2: combined z-score class = low cell count with doxorubicin only (active); viability z-score with doxorubicin = -2.36; viability z-score without drug = -0.84
Krtap21-1 #1: combined z-score class = low cell count with doxorubicin only (active); viability z-score with doxorubicin = -2.14; viability z-score without drug = -0.84
